This is one part of the list.

Sequences of proteins named here, by UniProt entry; tags and fusion partners are left off. A change or cut given only in a name is not applied to a line headed by its entry.
UniProt Q04656: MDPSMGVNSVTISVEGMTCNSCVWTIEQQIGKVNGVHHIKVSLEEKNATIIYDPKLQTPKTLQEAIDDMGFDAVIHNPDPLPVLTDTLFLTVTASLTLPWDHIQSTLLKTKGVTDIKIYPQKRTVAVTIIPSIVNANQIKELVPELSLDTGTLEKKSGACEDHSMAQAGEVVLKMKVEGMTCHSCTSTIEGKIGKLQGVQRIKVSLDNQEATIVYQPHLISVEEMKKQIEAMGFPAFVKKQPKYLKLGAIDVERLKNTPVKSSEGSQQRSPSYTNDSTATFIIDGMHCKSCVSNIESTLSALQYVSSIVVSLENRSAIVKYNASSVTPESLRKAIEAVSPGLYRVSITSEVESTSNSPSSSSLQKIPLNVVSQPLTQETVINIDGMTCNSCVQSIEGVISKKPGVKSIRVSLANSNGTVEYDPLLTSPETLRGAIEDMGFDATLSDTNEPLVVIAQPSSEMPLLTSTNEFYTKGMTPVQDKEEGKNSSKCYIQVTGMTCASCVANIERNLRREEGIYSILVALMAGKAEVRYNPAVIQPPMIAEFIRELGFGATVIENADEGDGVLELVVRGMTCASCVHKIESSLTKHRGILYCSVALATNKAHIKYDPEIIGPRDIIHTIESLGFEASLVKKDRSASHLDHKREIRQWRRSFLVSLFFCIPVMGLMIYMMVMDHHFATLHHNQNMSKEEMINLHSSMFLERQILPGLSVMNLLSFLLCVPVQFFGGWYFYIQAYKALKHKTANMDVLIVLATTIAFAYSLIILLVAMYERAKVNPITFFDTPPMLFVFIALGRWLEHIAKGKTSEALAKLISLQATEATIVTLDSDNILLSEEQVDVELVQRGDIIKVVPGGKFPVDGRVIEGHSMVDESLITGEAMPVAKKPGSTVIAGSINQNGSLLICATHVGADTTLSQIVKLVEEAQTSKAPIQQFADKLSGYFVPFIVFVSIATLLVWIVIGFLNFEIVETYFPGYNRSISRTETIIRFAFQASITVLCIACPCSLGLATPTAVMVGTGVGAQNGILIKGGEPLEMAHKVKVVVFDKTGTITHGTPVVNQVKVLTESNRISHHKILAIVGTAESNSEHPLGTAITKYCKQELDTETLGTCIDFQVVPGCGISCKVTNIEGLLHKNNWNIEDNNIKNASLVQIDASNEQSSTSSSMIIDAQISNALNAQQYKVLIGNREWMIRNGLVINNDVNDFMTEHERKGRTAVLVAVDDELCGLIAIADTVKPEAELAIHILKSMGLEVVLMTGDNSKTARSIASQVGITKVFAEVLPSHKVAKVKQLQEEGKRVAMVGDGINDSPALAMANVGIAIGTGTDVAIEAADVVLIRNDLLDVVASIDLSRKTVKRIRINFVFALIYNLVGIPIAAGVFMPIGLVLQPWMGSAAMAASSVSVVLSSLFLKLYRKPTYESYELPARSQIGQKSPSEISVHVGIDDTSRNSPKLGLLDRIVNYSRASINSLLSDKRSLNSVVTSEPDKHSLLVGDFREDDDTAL
UniProt Q9NT62, whole entry, looked up: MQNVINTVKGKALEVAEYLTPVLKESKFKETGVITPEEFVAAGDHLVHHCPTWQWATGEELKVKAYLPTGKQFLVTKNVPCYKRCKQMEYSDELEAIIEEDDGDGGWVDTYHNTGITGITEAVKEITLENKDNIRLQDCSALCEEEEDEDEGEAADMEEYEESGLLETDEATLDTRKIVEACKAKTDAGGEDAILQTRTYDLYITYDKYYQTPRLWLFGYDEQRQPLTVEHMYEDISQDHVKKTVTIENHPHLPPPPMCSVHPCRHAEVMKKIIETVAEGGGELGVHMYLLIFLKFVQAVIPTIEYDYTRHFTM
UniProt Q2TAZ0: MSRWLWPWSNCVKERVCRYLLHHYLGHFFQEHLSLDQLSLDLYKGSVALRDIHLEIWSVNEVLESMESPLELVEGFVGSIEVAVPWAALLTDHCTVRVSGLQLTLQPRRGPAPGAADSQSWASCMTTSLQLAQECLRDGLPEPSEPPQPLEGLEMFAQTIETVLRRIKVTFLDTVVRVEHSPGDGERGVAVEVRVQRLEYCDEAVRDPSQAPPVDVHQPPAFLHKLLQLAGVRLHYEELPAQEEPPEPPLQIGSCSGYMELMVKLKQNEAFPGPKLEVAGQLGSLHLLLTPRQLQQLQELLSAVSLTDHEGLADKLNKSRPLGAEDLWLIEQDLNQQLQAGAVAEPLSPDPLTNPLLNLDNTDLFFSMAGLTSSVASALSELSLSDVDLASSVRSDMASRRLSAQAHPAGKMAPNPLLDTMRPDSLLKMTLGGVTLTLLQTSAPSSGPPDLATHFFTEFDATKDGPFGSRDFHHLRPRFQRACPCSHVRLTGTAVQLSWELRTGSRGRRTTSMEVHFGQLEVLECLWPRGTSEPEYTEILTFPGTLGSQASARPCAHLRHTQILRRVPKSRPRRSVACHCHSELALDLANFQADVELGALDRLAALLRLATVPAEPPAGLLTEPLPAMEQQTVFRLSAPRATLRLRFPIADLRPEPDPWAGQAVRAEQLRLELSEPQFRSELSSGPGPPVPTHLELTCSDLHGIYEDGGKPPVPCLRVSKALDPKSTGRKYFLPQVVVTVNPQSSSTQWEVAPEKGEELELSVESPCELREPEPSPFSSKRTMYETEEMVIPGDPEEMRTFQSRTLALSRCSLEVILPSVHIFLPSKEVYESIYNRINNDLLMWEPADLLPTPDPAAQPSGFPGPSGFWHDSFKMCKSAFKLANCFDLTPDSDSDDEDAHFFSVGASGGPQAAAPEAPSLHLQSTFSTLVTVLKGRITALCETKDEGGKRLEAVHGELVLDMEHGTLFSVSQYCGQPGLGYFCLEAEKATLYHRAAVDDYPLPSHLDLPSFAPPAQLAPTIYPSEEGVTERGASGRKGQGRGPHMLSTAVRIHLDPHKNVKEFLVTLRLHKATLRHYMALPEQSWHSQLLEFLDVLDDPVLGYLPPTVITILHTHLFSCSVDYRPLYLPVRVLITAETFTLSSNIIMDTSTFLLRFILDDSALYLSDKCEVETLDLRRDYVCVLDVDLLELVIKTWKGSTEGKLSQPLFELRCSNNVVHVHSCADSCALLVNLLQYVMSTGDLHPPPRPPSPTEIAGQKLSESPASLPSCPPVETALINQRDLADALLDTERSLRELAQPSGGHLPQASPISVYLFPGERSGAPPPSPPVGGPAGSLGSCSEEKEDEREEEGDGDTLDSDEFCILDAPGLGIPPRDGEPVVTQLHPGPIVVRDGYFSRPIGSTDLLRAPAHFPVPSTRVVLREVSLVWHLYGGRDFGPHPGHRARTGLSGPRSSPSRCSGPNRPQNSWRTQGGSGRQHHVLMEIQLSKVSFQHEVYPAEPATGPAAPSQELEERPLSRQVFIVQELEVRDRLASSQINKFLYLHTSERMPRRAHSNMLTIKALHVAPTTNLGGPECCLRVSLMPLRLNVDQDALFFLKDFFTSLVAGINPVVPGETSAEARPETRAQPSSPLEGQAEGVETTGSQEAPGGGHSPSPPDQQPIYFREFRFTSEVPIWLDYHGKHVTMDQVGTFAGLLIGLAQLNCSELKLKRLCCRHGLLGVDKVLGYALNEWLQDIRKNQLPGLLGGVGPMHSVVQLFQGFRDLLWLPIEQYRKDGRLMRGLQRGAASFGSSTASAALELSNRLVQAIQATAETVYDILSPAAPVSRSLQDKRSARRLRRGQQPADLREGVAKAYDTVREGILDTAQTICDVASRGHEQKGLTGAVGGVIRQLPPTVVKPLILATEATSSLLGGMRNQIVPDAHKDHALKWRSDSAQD
UniProt P56134: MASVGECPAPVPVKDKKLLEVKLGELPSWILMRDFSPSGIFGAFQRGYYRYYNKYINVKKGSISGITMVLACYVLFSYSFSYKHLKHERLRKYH
UniProt P04424, whole entry, looked up: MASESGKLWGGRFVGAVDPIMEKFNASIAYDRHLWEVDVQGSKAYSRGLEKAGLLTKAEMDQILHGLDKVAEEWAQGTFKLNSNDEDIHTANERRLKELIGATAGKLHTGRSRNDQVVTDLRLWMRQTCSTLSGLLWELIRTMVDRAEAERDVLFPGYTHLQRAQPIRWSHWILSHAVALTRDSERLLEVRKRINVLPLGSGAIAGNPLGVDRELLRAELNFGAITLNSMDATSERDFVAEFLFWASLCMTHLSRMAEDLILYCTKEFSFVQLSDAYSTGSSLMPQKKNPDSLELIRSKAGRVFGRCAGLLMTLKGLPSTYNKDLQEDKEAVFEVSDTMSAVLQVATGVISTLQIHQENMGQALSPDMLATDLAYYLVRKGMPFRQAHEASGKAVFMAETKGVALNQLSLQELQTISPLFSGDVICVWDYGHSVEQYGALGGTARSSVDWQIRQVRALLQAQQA
UniProt Q8N5M1: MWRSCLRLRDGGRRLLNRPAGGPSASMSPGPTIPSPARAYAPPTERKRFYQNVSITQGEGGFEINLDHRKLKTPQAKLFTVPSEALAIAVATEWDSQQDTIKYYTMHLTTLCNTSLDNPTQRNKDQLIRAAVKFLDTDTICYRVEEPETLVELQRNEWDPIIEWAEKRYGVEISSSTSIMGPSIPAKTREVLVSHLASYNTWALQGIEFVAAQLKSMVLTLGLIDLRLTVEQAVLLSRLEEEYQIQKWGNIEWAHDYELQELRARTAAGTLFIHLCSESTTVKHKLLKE
UniProt Q92747, whole entry, looked up: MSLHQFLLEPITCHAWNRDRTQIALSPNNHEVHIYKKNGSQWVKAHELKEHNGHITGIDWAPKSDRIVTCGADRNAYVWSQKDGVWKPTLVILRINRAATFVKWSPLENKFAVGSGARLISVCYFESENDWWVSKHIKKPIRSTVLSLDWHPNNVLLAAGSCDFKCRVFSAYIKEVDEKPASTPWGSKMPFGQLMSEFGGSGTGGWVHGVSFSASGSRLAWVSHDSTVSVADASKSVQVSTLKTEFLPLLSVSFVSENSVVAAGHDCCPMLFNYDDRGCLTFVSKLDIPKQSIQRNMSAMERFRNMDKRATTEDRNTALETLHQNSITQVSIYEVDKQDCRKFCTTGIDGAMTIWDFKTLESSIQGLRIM
UniProt P56381: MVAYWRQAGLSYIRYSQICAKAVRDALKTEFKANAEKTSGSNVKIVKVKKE
UniProt O95260: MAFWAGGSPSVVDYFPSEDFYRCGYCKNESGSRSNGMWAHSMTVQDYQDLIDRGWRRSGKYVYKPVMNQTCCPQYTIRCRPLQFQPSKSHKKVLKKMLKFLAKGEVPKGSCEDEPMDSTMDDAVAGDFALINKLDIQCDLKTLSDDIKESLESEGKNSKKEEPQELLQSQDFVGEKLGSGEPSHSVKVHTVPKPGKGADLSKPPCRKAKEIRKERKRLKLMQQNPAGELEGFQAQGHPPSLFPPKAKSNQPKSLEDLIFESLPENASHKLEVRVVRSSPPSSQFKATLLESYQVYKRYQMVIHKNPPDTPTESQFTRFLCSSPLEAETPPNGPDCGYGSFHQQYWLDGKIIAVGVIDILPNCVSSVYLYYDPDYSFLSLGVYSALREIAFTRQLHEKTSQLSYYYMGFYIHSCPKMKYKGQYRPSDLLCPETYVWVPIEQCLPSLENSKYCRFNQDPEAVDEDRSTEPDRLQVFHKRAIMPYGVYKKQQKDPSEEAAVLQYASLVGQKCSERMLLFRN
UniProt Q06055: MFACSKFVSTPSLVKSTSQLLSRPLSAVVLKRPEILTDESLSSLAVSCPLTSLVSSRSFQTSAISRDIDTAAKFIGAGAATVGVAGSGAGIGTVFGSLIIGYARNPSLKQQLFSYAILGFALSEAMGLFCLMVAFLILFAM
UniProt P15336: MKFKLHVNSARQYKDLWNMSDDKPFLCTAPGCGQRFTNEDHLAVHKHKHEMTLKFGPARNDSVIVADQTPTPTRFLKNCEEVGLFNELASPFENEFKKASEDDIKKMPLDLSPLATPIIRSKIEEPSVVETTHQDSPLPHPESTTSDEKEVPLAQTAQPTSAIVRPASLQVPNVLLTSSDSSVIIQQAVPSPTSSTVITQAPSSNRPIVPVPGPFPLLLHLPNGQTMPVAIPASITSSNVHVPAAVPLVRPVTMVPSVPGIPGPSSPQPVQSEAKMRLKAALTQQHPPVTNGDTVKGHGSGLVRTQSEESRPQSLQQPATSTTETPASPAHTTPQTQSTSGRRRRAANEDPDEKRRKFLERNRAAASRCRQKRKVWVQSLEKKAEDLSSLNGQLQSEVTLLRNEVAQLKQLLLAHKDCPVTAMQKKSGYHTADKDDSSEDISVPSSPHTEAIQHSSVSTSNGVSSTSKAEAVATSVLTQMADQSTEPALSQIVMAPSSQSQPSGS
UniProt Q9H2C2: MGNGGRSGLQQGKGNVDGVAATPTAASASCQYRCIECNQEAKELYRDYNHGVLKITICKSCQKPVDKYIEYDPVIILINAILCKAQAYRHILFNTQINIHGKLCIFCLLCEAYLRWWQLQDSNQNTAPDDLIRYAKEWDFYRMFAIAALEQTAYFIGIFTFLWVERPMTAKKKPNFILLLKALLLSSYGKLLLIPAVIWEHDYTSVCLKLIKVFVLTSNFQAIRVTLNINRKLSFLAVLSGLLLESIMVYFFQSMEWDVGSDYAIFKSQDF

Compound in this experiment: CC1=NC(=CC=C1)C2=C(N=C(N2)C(C)(C)C)C3=CC4=NC=CN=C4C=C3
Briefly: log2 fold change, soluble protein after heating vs DMSO (PISA); higher = thermal stabilisation; K562 cells, 10 uM, 30 min; active = over 0.2 and 3.5 SD of the protein, either way, in both replicates (recomputed). An outline of the steps: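 Soluble protein was defined as the supernatant after 21,000xg for 90 min. It came from K562 cells at 2×10^6 cells/mL given 10 μM compound for 30 min, heated in aliquots for 3 min across 48°C-58°C, pooled, and extracted in PBS with 0.5% NP-40 at 4°C, and was quantified by TMTpro 16plex LC-MS/MS with equalised channel sums. Thermal stability against control samples, from duplicates, is reported as log2 fold change.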
As for ATP7A isoform 3 (UniProt Q04656), the log2 fold change is inactive: 0.015.
Under ARPC1B (UniProt O15143) stands inactive: 0.139; under ASAP1 isoform 2 (UniProt Q9ULH1), inactive: 0.022; under ATG3 (UniProt Q9NT62), inactive: 0.034.
Under ARL6IP1 (UniProt Q15041) stands inactive: 0.011; under ATG2A isoform 3 (UniProt Q2TAZ0), inactive: -0.052.
Under ARRB2 isoform 4 (UniProt P32121) stands inactive: -0.024; under ATP5MF (UniProt P56134), inactive: -0.035; under ASPM (UniProt Q8IZT6), inactive: 0.021.
Consider ATP6V1A (UniProt P38606), for which the log2 fold change is inactive: -0.005.
Under ATP11B (UniProt Q9Y2G3) stands inactive: 0.019.
Next, ASL (UniProt P04424): inactive: -0.005; ATP6AP2 (UniProt O75787): inactive: -0.037.
Next, ASAH1 isoform 2 (UniProt Q13510): inactive: 0.048.
Take ATP5F1A (UniProt P25705): the log2 fold change is inactive: 0.
Next, ARIH2 (UniProt O95376): inactive: 0.029; ARPC3 (UniProt O15145): inactive: 0.004; ATPAF2 (UniProt Q8N5M1): inactive: -0.026.
Next, ATG2B (UniProt Q96BY7): inactive: -0.048; ARPC1A (UniProt Q92747): inactive: -0.014; ATP5F1E (UniProt P56381): inactive: 0.035.
Under ATE1 isoform 2 (UniProt O95260) stands inactive: 0.026; under ASPH (UniProt Q12797), inactive: -0.104; under ATP2C1 isoform 7 (UniProt P98194), inactive: 0.025.
For the target ATL3 (UniProt Q6DD88), the log2 fold change is inactive: 0.031.
Next, ARPC5 (UniProt O15511): inactive: -0.011; ARPC2 (UniProt O15144): inactive: 0.
Under ATP5MC2 isoform 2 (UniProt Q06055) stands inactive: -0.119; under ARMC1 (UniProt Q9NVT9), inactive: 0.017; under ATF2 (UniProt P15336), inactive: 0.065.
Under ATP6V0D1 (UniProt P61421) stands inactive: -0.075; under ASCC3 (UniProt Q8N3C0), inactive: -0.282; under ARPC4 isoform 3 (UniProt P59998), inactive: 0.007.
With ARV1 (UniProt Q9H2C2), the log2 fold change was inactive: 0.044.
Under ARSB (UniProt P15848) stands inactive: -0.038.
Consider ASF1A (UniProt Q9Y294), for which the log2 fold change is inactive: 0.016.
Next, ATP11C (UniProt Q8NB49): inactive: 0.021; ATP2B4 (UniProt P23634): inactive: -0.031.
